This is one part of the list. The main result of the screen is listed elsewhere. These columns were measured beside it and carry no call. The list favours compounds with an active or inconclusive main result. The note in brackets gives the kind of curve behind each potency; many fits are weak.
Assay: qHTS Assay to Find Inhibitors of Chronic Active B-Cell Receptor Signaling
Conditions: ABC-DLBCL IkBa-CBG/CBR reporter, luminescence ratio (green luciferase fused to IkBa over red control in TMD8 lymphoma cells), 4 h
Method in brief: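 Cell line TMD8 (human ABC DLBCL), stably expressing tet-inducible CBG68-IkBa fusion and CBR; IMDM/0.5% FBS; cpd up to 46 uM; dox induction, 4 h, 37C/5% CO2; dual luminescence; green/red ratio; MG132 control.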

[1] = measured here: CBR red luminescence, cell number
[2] = measured here: IkBa-CBG green luminescence

| SMILES | AC50 [1] | AC50 [2] |
| --- | --- | --- |
| O=C(Nc1ccc(Cl)cc1)C1=Cc2ccccc2OC1 | 11.6 µM [falling, partial curve] |  |
| c1ccc(Nc2nc(NCCN3CCOCC3)nc(Nc3ccccc3)n2)cc1 | 6.31 µM [falling, partial curve, poor fit] |  |
| O=C(Nc1nc(-c2cccs2)cs1)c1ccc(Cl)cc1 | 6.51 µM [falling, partial curve, poor fit] | 4.61 µM [rising, partial curve, poor fit] |
| COc1ccccc1NC(=S)NC(NC(C)=O)C(Cl)(Cl)Cl (centres undefined) | 25.1 µM [falling, partial curve, poor fit] |  |
| NC(=O)COC(=O)c1ccc(C(=O)C(=O)c2ccccc2)cc1 | 3.55 µM [rising, single point] |  |
| O=C(Nc1cccnc1)c1c(O)c2cccc3c2n(c1=O)CC3 | 9.2 µM [falling, single point] |  |
| Cc1ccc(C(=O)C=CNNC(=O)c2ccccc2)cc1 | 20 µM [falling, partial curve] |  |
| O=C(CSc1nc(-c2ccccc2)cs1)Nc1cccc([N+](=O)[O-])c1 | 29.1 µM [falling, single point] |  |
| CCC(=O)[C@@]1(C)[C@H](C)C[C@H]2[C@@H]3CCC4=CC(=O)C=C[C@]4(C)[C@H]3[C@@H](O)C[C@@]21C | 2.59 µM [rising, partial curve] | 7.31 µM [falling, partial curve, poor fit] |
| C=CCOc1ccc(/C=C(\C#N)C(=O)Nc2ccccn2)cc1OC | 20 µM [rising, single point] |  |
| COc1ccc(OC)c(-c2nnc3n2N=C(c2ccc(OC)c(OCC4CC4)c2)CS3)c1 | 0.259 µM [rising, partial curve, poor fit] | 0.103 µM [falling, full curve] |
| COc1ccc(NC(=O)Nc2nc3c(s2)CCCC3)cc1 | 20.6 µM [falling, single point] |  |
| O=C1C=C(NC(=O)Nc2ccc(Cl)c(Cl)c2)CCC1 | 1.78 µM [rising, full curve, poor fit] |  |
| CCOc1ccc(OCc2cccc(C(=O)Nc3ccc(CN4CCCCC4)cc3)c2)cc1 | 29.1 µM [falling, single point] |  |
| CCC1=NC(c2ccc(Br)cc2)N(O)C1(C)C (centres undefined) | 11.2 µM [rising, partial curve, poor fit] |  |
| S=c1nc(-c2ccc(Cl)cc2)[nH][nH]1 | 17.8 µM [rising, single point] |  |
| CCOC(=O)c1ccc2ncc(C(=O)OCC)c(NCc3ccco3)c2c1 | 25.1 µM [falling, single point] |  |
| Cc1cc(C(C)(C)C)cc(C)c1C[n+]1ccc2ccccc2c1 | 22.4 µM [falling, partial curve, poor fit] |  |
| COc1ccc(C(=O)OCC(=O)Nc2nnc(-c3ccccc3)o2)cc1 |  | 35.5 µM [falling, single point] |
| CCn1c(SC(C)C)nnc1-c1c[nH]c2ccccc12 | 4.61 µM [rising, full curve, poor fit] |  |

| SMILES | AC50 [1] | AC50 [2] |
| --- | --- | --- |
| Nc1ccc(-c2nc3ccc(N)cc3o2)cc1 | 29.1 µM [falling, single point] |  |
| O=C(/C=C/c1ccc([N+](=O)[O-])cc1)NCc1cccs1 | 23.1 µM [falling, single point] |  |
| NC(=S)n1[nH]c(-c2ccc([N+](=O)[O-])cc2)c(N=Nc2cccc([N+](=O)[O-])c2)c1=O | 3.98 µM [rising, partial curve] |  |
| COC(=O)c1ccc(CSc2ncnc3ccccc23)o1 | 0.731 µM [rising, full curve, poor fit] |  |
| CCCN(CCC)S(=O)(=O)c1ccc2c(c1)N(CC(=O)NCc1ccc(F)cc1Cl)C(=O)CS2 |  | 17.8 µM [rising, partial curve, poor fit] |
| O=C(C1CCN(c2nc(-c3ccccc3)nc3c2CCC3)CC1)N1CCC(O)CC1 | 15.8 µM [falling, single point] |  |
| CSc1ccc(C2=CC(=O)C[C@H](c3ccc(F)cc3)C2)cc1 | 29.1 µM [rising, single point] |  |
| Cn1cccc1/C=N/NC(=O)c1cccnc1 | 29.1 µM [falling, single point] |  |
| O=C(Nc1cccn2ncnc12)C(Cl)Cl | 22.4 µM [falling, single point] |  |
| COC(=O)c1c(NC(=O)CN2C(=O)NC(CCc3ccccc3)C2=O)sc2c1CCCCC2 (centres undefined) | 0.13 µM [falling, full curve, poor fit] |  |
| COc1cccc(C(=O)c2cc3cc(Cl)ccc3[nH]2)c1 | 2.82 µM [rising, full curve] |  |
| O=C(Nc1cccc(-c2csc(Nc3ccccc3)n2)c1)c1ccccc1 | 11.2 µM [falling, partial curve] |  |
| Cc1ccnc(NC(=S)NC(=O)c2cccs2)c1 | 14.6 µM [falling, partial curve] | 23.1 µM [falling, single point] |
| O=C(O)C(Cc1ccc(Cl)cc1)Sc1nc2ccccc2[nH]1 (centres undefined) | 3.55 µM [rising, single point] |  |
| Cc1ccc(-c2n[nH]c3c2C(c2cccc(O)c2)N(c2ccc(C(=O)O)cc2)C3=O)cc1 (centres undefined) | 14.1 µM [falling, partial curve, poor fit] |  |
| COC(=O)c1cc(C(=O)OCC(=O)NC(=O)NCc2ccccc2)cc([N+](=O)[O-])c1 | 25.9 µM [rising, single point] |  |
| Cc1ccccc1OCC(=O)NNC(=O)C1CCN(c2ncnc3sc(C)c(C)c23)CC1 | 4.11 µM [rising, partial curve, poor fit] |  |
| Cn1cc(CN2CCCC(C(=O)c3cccs3)C2)c(-c2cccc(Cl)c2)n1 (centres undefined) | 0.631 µM [rising, full curve, poor fit] |  |
| O=[N+]([O-])c1cccnc1N1CCN(Cc2ccc3c(c2)OCO3)CC1 | 6.31 µM [rising, full curve, poor fit] |  |
| CCCCN(C(=O)c1c(C)[nH]c(C(=O)OCC)c1C)c1ccccc1 | 10 µM [falling, partial curve] |  |

Single records, from the list above.
CSc1ccc(C2=CC(=O)C[C@H](c3ccc(F)cc3)C2)cc1 as listed: AC50 [1]: 29.1 µM [rising, single point]
CCCN(CCC)S(=O)(=O)c1ccc2c(c1)N(CC(=O)NCc1ccc(F)cc1Cl)C(=O)CS2 as listed: AC50 [2]: 17.8 µM [rising, partial curve, poor fit]
